# This is one part of the list. The data scatter; read single values as rough.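 Tm was set to 64 °C where no melting was found, and many curves are irregular.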
# Protein sequences, listed by entry. Tags and fused reporters are not part of them. Lines headed by an entry give the natural chain unless they say otherwise; changes in a name come on top.
# UniProt O14641: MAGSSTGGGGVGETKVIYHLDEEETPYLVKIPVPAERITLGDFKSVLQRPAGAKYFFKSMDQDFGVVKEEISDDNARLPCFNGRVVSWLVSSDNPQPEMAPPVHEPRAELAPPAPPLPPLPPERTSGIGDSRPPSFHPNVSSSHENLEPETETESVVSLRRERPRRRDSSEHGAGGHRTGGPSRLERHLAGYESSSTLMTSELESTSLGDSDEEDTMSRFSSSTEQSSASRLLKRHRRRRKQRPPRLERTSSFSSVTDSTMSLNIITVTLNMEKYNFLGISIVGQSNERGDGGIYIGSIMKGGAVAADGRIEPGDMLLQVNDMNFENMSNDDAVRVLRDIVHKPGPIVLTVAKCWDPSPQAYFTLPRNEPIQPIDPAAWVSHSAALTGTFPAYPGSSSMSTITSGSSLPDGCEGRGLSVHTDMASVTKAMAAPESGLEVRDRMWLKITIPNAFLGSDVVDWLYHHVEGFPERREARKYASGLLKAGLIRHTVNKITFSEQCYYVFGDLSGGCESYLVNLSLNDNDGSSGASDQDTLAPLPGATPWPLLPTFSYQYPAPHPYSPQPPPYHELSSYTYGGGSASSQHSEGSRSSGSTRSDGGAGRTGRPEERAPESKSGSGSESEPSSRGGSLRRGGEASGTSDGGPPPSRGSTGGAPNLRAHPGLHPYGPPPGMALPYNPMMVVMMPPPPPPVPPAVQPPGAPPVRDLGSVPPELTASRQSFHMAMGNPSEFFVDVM
# UniProt O14979: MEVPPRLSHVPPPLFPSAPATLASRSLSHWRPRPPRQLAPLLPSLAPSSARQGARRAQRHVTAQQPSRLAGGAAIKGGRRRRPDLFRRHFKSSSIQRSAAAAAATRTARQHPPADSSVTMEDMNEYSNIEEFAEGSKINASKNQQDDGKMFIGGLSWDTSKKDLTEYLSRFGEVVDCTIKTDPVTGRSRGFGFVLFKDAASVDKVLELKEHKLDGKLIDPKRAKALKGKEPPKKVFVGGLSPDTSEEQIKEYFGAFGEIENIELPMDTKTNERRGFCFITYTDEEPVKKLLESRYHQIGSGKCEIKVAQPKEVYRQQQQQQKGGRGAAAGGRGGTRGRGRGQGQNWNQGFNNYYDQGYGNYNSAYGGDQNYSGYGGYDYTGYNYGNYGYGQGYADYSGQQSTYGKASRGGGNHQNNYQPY
# UniProt O00566: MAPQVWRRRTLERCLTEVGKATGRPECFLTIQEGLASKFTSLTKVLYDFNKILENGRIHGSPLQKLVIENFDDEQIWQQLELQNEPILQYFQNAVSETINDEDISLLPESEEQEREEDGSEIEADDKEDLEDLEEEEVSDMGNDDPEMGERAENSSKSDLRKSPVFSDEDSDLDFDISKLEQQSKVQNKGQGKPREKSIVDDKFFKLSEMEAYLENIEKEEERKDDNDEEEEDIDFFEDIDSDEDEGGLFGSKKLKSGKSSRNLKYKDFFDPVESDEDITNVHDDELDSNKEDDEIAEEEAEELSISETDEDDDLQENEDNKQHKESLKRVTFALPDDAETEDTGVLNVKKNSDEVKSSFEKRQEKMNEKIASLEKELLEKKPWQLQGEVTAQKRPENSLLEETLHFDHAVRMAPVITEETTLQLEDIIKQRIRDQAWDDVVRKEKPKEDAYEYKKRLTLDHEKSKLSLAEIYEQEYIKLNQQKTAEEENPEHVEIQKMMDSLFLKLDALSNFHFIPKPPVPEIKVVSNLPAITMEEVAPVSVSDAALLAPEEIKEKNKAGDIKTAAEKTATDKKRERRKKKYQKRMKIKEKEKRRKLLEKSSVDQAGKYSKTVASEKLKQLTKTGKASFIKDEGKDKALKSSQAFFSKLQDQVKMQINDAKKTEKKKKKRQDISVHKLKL
# UniProt O14802: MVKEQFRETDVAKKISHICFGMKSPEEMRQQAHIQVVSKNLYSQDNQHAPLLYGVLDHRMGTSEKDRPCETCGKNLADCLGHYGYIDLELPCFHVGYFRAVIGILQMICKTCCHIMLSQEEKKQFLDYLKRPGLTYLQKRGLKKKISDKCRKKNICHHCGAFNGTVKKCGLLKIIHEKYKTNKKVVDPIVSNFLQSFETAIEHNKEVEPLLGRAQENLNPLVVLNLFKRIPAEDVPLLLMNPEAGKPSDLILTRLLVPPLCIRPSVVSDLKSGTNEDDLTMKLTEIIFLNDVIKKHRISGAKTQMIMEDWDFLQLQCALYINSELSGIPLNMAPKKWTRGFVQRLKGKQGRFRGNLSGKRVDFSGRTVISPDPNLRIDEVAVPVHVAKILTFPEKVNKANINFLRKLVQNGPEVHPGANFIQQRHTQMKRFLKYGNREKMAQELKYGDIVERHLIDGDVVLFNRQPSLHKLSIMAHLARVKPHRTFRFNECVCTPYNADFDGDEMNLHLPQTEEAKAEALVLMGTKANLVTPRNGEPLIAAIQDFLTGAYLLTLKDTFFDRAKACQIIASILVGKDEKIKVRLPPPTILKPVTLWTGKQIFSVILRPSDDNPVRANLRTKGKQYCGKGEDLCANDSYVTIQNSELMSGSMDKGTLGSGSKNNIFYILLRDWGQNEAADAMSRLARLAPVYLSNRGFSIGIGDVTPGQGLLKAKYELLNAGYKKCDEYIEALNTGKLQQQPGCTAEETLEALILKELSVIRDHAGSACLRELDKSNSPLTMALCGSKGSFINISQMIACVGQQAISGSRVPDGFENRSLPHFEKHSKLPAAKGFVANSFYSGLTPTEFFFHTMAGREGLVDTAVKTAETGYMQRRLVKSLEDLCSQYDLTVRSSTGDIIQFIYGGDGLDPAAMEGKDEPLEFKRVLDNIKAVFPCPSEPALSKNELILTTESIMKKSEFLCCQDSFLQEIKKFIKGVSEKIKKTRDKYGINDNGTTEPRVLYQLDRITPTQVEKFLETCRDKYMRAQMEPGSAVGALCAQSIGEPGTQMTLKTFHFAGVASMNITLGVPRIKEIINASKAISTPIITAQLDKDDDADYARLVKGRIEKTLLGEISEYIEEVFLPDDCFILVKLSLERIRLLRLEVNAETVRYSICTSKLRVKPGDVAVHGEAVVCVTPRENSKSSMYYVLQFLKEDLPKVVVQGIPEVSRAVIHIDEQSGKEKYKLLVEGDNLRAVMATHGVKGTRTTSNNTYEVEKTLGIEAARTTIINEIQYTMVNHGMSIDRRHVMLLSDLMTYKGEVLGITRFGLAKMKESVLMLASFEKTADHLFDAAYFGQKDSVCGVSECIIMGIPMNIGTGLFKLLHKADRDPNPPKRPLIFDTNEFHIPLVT
# UniProt A8K0Z3: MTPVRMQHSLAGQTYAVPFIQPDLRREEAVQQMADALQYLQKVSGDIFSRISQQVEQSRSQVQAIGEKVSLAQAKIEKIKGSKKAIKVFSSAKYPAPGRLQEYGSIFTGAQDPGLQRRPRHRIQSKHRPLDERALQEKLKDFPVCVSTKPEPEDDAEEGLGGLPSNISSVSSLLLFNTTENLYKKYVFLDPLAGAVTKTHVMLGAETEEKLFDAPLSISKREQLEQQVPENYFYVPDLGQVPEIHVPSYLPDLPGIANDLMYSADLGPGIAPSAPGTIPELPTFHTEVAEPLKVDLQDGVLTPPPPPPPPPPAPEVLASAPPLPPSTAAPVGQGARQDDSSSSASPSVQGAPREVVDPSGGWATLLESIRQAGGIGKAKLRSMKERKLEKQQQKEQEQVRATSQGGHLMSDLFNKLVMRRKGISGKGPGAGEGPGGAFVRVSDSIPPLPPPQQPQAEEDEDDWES
# UniProt A6NDG6: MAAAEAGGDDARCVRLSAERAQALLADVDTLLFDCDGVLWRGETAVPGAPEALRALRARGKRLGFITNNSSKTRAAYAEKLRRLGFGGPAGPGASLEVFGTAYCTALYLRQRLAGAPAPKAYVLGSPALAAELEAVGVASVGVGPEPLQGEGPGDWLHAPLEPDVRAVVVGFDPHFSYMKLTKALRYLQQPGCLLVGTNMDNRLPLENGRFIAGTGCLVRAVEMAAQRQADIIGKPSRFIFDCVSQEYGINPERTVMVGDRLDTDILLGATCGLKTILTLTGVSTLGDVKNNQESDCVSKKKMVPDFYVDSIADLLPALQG
# UniProt O43237, whole entry: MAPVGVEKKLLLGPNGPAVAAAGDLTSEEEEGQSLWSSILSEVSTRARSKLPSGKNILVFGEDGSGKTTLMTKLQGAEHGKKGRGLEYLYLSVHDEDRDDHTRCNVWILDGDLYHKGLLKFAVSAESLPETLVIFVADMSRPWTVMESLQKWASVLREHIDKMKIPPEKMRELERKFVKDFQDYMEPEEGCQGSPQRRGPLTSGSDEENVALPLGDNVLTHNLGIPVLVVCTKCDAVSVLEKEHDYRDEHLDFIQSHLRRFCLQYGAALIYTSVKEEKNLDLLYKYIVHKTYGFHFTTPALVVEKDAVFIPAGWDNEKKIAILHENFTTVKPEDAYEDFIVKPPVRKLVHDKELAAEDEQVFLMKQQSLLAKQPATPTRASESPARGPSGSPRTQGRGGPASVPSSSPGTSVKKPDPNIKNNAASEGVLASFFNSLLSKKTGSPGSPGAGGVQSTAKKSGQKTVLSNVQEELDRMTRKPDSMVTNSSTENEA
# UniProt O15504: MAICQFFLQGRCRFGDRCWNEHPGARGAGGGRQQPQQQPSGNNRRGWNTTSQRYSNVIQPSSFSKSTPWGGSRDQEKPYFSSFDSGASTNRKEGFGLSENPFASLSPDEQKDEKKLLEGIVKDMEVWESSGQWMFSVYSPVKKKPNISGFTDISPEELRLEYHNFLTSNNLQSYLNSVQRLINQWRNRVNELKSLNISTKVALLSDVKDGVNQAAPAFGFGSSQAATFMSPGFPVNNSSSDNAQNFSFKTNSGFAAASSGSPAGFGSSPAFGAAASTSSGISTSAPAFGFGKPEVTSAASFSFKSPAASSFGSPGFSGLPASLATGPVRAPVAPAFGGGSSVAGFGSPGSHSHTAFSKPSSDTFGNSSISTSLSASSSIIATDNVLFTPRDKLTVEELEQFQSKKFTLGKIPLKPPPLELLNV
# UniProt O15270: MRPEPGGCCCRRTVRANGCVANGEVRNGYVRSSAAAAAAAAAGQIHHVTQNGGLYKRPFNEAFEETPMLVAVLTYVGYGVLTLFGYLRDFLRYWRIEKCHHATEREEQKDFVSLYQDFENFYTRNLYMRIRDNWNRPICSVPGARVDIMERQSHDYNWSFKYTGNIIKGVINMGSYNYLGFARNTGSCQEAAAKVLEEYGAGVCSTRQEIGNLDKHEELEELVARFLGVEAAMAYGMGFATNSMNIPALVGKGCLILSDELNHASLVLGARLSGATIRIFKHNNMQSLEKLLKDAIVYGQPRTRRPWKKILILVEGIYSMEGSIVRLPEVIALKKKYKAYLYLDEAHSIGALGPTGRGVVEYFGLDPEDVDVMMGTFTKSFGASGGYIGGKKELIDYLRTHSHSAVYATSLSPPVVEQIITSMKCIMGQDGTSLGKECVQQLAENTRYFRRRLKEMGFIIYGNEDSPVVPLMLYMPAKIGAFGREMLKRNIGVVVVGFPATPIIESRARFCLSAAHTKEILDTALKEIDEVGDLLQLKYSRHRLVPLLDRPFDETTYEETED
# UniProt O00487, whole entry: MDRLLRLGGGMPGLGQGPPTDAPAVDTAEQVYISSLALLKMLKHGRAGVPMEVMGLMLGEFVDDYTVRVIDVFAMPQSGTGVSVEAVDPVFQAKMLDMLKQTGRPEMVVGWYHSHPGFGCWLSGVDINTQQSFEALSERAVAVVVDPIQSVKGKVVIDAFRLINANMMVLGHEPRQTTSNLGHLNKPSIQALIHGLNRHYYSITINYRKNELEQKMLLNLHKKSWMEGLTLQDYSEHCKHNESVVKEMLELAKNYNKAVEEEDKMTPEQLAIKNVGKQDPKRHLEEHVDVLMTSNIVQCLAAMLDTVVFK
# UniProt O15182: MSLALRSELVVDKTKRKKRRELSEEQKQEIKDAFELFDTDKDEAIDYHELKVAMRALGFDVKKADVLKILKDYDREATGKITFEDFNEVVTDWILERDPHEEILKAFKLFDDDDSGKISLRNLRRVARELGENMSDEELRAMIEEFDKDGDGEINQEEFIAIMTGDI
# UniProt A6NFE2: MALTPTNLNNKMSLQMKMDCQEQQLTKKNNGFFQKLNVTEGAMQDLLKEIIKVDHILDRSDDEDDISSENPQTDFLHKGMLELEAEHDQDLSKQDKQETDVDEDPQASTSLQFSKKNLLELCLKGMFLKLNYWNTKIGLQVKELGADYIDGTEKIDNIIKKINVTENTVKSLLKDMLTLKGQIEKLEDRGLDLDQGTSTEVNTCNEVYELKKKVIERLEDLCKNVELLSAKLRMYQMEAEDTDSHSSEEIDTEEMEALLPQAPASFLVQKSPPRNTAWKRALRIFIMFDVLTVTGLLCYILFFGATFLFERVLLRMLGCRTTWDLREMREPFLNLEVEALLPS
# UniProt O14880: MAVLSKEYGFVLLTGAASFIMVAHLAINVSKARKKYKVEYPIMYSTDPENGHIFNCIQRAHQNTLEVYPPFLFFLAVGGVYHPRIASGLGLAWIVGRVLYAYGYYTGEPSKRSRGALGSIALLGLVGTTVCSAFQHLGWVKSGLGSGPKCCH
# Compound: CCc1cnccc1C(=O)Nc1cc2c(cc1F)NC(=O)CC2
# Assay: melting temperature shift (DMSO Tm minus MBE1-treated Tm) in cellular thermal proteome profiling; higher = less thermal stabilization by MBE1 (negative = stabilized by MBE1)
# Conditions: A375; MBE1 concentration: 100 nM
row,Target,melting temperature shift [°C]
1,DVL2 (UniProt O14641),-0.521
2,HNRNPDL (UniProt O14979),-1.48
3,MPHOSPH10 (UniProt O00566),0.611
4,POLR3A (UniProt O14802),-0.757
5,UniProt A8K0Z3,-1.25
6,PGP (UniProt A6NDG6),-1.38
7,AGPAT2 (UniProt O15120),-0.482
8,DYNC1LI2 (UniProt O43237),1.03
9,SETD1A (UniProt O15047),-0.0769
10,OPLAH (UniProt O14841),-0.0427
11,CLIC1 (UniProt O00299),-0.879
12,SURF4 (UniProt O15260),-1.57
13,STX16 (UniProt O14662),0.91
14,BCKDK (UniProt O14874),-0.427
15,UniProt O15504,-0.202
16,UniProt O15020,0.421

row,Target,melting temperature shift [°C]
1,MYO1C (UniProt O00159),-0.64
2,P4HA2 (UniProt O15460),-1.25
3,WWP2 (UniProt O00308),-0.32
4,UBE2C (UniProt O00762),-0.334
5,U2SURP (UniProt O15042),-0.583
6,SPTLC2 (UniProt O15270),-0.282
7,PSMD14 (UniProt O00487),-1.37
8,CETN3 (UniProt O15182),-3.95
9,UniProt A6NFE2,-5.32
10,GAK (UniProt O14976),-0.827
11,TCERG1 (UniProt O14776),-0.574
12,UniProt O00221,0.104
13,MGST3 (UniProt O14880),-1.42
14,ABLIM1 (UniProt O14639),-1.45
15,PIK3C2A (UniProt O00443),-0.923

# Already shown: entries from further up.
row,Target,melting temperature shift [°C]
3,WWP2 (UniProt O00308),-0.32
4,UBE2C (UniProt O00762),-0.334

# From the supplement of paper PMC12595434, “Development of retinoid nuclear receptor pathway antagonists through targeting aldehyde dehydrogenase 1A3” (iScience, 2025)
